The list shows a part of the results. Most values lie at the level of the controls, where differences are scatter.

The chains behind the UniProt entries cited, without tags or fusion partners. Where a name states a change or a piece, a line headed by the entry shows the natural chain unless it says otherwise.
UniProt Q96QT6: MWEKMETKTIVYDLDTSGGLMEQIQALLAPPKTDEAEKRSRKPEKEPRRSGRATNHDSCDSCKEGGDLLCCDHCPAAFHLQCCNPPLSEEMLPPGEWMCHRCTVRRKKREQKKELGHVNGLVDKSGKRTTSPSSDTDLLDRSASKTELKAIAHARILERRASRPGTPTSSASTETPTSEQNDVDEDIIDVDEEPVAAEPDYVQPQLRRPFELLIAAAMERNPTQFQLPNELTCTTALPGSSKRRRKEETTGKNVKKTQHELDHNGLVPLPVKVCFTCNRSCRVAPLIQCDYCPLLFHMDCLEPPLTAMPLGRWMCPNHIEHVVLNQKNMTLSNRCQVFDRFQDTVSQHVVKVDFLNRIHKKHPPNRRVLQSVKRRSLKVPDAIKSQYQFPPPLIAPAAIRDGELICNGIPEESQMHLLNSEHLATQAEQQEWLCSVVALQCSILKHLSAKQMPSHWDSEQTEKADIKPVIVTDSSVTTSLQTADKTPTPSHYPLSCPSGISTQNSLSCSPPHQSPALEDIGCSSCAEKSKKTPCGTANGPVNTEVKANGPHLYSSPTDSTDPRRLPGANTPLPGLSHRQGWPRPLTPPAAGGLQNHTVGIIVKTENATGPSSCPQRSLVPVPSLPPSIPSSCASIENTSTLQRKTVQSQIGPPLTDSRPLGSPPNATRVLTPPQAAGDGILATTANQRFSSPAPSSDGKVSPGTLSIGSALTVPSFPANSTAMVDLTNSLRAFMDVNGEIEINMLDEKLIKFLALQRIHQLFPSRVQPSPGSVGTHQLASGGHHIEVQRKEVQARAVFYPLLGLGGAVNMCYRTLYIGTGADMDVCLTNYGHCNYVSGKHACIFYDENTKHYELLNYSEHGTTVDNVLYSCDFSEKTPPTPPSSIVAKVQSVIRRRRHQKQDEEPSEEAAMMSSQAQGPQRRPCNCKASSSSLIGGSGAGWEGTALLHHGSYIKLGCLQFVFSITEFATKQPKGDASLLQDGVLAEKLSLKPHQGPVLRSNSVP
UniProt Q96KC8: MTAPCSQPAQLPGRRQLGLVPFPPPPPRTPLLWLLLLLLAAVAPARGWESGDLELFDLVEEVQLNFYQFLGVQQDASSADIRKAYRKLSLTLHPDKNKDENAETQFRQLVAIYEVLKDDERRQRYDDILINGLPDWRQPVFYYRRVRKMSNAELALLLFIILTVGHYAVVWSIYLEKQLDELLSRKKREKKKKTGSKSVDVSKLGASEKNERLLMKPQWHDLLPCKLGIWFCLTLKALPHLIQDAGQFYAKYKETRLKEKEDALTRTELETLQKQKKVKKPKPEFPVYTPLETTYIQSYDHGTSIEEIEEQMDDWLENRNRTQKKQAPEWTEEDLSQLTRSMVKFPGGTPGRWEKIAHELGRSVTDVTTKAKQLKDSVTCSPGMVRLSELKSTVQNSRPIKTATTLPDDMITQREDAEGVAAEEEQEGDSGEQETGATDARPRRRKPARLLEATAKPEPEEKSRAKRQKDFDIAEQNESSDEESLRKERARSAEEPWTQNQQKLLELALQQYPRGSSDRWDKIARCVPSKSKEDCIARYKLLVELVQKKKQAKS
UniProt Q96Q89: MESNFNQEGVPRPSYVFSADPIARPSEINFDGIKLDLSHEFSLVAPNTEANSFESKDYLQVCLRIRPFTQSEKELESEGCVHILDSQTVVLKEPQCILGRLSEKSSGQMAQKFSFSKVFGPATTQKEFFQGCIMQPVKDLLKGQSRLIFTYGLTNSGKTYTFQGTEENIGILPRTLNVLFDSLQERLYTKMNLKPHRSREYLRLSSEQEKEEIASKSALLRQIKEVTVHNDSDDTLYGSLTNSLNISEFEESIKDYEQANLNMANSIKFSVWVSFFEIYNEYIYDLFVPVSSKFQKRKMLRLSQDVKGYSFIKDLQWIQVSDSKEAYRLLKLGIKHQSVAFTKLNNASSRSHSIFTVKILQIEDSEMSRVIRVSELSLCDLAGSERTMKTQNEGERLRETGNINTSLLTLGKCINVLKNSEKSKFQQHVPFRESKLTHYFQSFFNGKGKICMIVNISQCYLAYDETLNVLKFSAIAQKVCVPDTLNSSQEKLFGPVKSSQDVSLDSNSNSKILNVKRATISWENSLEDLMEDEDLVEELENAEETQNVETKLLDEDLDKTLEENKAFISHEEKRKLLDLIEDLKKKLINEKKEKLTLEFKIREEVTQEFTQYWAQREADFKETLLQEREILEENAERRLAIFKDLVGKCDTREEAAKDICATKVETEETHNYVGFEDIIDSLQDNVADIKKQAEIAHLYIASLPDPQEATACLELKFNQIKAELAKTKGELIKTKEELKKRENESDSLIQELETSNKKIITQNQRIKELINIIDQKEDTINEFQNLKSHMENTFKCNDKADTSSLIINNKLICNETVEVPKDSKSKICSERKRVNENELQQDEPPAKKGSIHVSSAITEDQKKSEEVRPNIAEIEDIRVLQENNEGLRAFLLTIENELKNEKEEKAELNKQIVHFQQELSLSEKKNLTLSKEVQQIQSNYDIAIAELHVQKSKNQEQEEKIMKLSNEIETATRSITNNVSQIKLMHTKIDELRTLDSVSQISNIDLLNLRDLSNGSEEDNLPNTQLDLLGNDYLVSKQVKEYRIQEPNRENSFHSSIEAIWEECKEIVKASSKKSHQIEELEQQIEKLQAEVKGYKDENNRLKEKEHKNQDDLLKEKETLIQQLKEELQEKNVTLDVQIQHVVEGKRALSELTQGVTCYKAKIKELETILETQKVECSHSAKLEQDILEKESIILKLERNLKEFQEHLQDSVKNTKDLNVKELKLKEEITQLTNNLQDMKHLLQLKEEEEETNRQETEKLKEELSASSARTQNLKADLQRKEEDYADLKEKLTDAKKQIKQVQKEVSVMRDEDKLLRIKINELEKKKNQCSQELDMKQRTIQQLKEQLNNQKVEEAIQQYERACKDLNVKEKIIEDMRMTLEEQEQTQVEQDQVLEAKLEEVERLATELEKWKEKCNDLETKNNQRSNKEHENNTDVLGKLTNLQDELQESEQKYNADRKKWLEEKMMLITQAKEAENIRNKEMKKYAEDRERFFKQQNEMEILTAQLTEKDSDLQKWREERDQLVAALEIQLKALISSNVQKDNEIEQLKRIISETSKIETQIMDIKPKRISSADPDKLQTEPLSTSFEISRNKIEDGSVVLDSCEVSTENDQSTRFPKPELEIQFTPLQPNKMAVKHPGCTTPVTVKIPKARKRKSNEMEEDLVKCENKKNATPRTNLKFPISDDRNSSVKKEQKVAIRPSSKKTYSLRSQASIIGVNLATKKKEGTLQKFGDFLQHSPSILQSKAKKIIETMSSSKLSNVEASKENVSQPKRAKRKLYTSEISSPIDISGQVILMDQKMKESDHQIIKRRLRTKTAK
UniProt Q96IY1: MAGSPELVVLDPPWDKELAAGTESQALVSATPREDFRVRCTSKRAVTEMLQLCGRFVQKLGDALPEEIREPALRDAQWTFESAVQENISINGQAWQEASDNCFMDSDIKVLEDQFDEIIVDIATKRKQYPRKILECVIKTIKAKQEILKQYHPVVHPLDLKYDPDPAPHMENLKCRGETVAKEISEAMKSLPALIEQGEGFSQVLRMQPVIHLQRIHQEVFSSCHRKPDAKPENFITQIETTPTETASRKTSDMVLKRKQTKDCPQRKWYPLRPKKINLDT
UniProt Q96K62: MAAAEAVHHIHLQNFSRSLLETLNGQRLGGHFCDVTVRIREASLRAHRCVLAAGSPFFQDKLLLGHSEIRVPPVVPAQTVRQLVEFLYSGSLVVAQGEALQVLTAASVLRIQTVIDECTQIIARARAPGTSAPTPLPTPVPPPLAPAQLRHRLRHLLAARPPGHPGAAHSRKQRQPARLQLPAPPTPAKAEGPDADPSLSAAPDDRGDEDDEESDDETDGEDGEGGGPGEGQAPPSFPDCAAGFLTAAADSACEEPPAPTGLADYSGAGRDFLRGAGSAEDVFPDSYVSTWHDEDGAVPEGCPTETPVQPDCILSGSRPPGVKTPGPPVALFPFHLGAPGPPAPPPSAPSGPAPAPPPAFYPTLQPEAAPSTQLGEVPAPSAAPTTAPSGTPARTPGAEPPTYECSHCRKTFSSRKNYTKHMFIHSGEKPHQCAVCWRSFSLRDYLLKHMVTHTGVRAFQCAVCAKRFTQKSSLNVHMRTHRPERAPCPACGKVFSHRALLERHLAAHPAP
UniProt Q96QF0: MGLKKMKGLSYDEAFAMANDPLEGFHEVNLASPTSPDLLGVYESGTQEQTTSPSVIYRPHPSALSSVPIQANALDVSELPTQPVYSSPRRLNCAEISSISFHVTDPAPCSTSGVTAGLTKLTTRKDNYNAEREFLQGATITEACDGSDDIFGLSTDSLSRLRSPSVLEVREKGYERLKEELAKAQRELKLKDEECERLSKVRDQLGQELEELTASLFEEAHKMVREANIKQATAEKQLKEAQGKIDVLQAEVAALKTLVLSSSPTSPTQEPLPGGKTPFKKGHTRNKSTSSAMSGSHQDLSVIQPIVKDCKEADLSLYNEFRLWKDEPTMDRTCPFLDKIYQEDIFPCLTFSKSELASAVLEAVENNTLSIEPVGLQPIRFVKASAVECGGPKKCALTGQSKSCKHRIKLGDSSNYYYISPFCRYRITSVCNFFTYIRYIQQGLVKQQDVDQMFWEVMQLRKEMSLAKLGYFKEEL
UniProt Q96I76: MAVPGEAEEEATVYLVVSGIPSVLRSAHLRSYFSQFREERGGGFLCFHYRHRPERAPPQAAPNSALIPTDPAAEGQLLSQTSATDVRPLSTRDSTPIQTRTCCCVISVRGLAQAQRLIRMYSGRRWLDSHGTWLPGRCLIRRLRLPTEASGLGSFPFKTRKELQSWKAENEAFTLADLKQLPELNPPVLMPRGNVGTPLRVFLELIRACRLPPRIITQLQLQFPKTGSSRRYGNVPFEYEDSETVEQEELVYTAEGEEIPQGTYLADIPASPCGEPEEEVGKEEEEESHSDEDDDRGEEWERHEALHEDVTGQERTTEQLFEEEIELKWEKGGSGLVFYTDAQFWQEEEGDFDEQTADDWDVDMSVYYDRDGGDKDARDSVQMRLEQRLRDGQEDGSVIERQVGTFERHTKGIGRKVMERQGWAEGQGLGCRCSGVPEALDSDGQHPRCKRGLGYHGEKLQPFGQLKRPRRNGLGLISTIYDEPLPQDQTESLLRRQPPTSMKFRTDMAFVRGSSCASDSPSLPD
UniProt Q96GU1: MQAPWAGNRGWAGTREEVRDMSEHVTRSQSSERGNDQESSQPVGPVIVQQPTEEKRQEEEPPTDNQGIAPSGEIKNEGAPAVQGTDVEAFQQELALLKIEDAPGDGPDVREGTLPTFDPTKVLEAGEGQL
UniProt Q96HJ3: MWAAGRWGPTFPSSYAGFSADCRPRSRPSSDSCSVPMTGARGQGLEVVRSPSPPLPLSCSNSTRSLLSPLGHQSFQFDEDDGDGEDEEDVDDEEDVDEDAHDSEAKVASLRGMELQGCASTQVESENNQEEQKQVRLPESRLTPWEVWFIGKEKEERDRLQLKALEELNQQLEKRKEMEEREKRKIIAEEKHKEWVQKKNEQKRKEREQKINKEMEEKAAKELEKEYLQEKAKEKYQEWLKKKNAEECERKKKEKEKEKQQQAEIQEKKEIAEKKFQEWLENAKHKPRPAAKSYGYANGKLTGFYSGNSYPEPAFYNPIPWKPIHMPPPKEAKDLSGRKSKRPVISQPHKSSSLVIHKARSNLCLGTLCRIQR
UniProt Q96GQ7: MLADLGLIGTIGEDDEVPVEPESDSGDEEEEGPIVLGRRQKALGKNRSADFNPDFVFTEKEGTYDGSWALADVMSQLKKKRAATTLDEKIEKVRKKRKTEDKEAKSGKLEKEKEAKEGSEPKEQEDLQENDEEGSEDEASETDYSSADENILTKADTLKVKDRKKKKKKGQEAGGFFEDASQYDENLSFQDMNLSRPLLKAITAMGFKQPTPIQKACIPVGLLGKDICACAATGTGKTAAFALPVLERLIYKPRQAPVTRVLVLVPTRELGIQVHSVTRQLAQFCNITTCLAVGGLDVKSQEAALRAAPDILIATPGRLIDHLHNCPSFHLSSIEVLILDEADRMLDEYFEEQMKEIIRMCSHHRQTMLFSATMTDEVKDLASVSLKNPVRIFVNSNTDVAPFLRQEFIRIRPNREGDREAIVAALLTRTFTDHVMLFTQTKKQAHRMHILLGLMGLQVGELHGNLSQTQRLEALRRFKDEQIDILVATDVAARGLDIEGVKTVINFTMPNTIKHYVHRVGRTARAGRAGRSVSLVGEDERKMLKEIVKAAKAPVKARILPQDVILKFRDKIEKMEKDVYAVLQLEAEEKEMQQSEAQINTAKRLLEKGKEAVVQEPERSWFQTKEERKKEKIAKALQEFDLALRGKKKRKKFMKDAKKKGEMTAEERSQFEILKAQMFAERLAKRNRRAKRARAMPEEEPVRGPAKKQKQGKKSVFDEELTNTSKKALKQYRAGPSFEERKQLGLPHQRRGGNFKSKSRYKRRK

Compound in this test: Cc1nc(Nc2ncc(C(=O)Nc3c(C)cccc3Cl)s2)cc(N2CCN(CCO)CC2)n1 [dasatinib]
Description: log2 fold change of tryptic peptide abundance, ligand vs vehicle (limited proteolysis) (log2 ratio); higher = more trypsin-susceptible (destabilized). To be noted: ligand concentration: 5 uM; sample: K562 cleared lysate.
In the case of “DOCK7 (peptide sequence: PGSFLLTSTSGR, peptide start residue: 1304) (UniProt Q96N67)”, the log2 fold change was -0.876. Consider “PHF12 (peptide sequence: ANGPHLYSSPTDSTDPR, peptide start residue: 547) (UniProt Q96QT6)”, for which the log2 fold change was -0.728. Regarding “DNAJC1 (peptide sequence: LLVELVQK, peptide start residue: 541) (UniProt Q96KC8)”, the log2 fold change turned out to be 0.113. With “UniProt Q96NG3 (peptide sequence: GDLSFLSK, peptide start residue: 143)” the figure was -0.215. With “DDX11 (peptide sequence: ACPYYGSR, peptide start residue: 349) (UniProt Q96FC9)”, the log2 fold change came to 0.177.

“SGSM3 (peptide sequence: SPGWVQIK, peptide start residue: 693) (UniProt Q96HU1)”: the log2 fold change is 0.273. With “DCAF5 (peptide sequence: AVHGHSGLKR, peptide start residue: 912) (UniProt Q96JK2)”, the log2 fold change was -0.274. The same measure for “UniProt Q96FV0 (peptide sequence: FLSLAGNQIR, peptide start residue: 92)”: -0.294; for “PDXP (peptide sequence: LAGDPSAGDGAAPR, peptide start residue: 129) (UniProt Q96GD0)”: 0.263; for “KIF20B (peptide sequence: LEQDILEKESIILK, peptide start residue: 1183) (UniProt Q96Q89)”: 0.492. The same measure for “TONSL (peptide sequence: ELQLCSR, peptide start residue: 1336) (UniProt Q96HA7)”: -0.214; for “NSL1 (peptide sequence: KPDAKPENFITQIETTPTETASR, peptide start residue: 227) (UniProt Q96IY1)”: 0.264; for “UniProt Q96HB5 (peptide sequence: RLHELEEQLR, peptide start residue: 156)”: 0.195.

As for “UniProt Q96GY0 (peptide sequence: VSSSSSSLGNK, peptide start residue: 208)”, the log2 fold change was found to be 0.342. As to “PURB (peptide sequence: KYYLDLK, peptide start residue: 130) (UniProt Q96QR8)”, the log2 fold change was -0.126.

On to “UniProt Q96G04 (peptide sequence: CFLSELIK, peptide start residue: 72)”, for which the log2 fold change is -0.0993. The same measure for “UniProt Q96RT1 (peptide sequence: DLKPHEDQQDINKDVGVK, peptide start residue: 517)”: -0.821; for “UniProt Q96K62 (peptide sequence: HLLAARPPGHPGAAHSR, peptide start residue: 155)”: -0.62. With “NAP1L5 (peptide sequence: FDKEFQALEKK, peptide start residue: 98) (UniProt Q96NT1)” the figure was 0.159.

As to “RAB3IP (peptide sequence: LGYFKEEL, peptide start residue: 469) (UniProt Q96QF0)”, the log2 fold change amounted to 0.122. Consider “RCHY1 (peptide sequence: QYHCENCGICR, peptide start residue: 99) (UniProt Q96PM5)”, for which the log2 fold change is -0.663.

As to “GPATCH3 (peptide sequence: CSGVPEALDSDGQHPR, peptide start residue: 433) (UniProt Q96I76)”, the log2 fold change is 0.181. The same measure for “PAGE5 (peptide sequence: IEDAPGDGPDVR, peptide start residue: 99) (UniProt Q96GU1)”: 0.0715.

For “UniProt Q96HJ3 (peptide sequence: ALEELNQQLEK, peptide start residue: 164)”, the log2 fold change is -0.431. The same measure for “SPATA33 (peptide sequence: HPPPAASLEEKPDVK, peptide start residue: 61) (UniProt Q96N06)”: 0.222. With “UniProt Q96QE5 (peptide sequence: SINIVEHR, peptide start residue: 96)” the figure was 0.0821; with “UniProt Q96M91 (peptide sequence: REAQEARR, peptide start residue: 215)”, -3.08e-05. With “SPG11 (peptide sequence: RVAELAELPVDNLVIK, peptide start residue: 1691) (UniProt Q96JI7)” the figure was 0.471.

For the target “KIF16B (peptide sequence: DLLAEKEKFEEER, peptide start residue: 671) (UniProt Q96L93)”, the log2 fold change was 0.544. With “UniProt Q96GC9 (peptide sequence: EHHNGNFTDPSSVNEKK, peptide start residue: 18)”, the log2 fold change was 0.307. The same measure for “SLC35E1 (peptide sequence: SPLEKPHNGLLFPQHGDYQYGR, peptide start residue: 363) (UniProt Q96K37)”: 0.214. On to “UniProt Q96Q45 (peptide sequence: EHPEAPVQR, peptide start residue: 74)”, for which the log2 fold change was -0.734. Turning to “CCDC43 (peptide sequence: EQDKLQR, peptide start residue: 193) (UniProt Q96MW1)”, the log2 fold change worked out at 0.272.

Turning to “DDX27 (peptide sequence: TFTDHVMLFTQTKK, peptide start residue: 461) (UniProt Q96GQ7)”, the log2 fold change was -0.417. The same measure for “PRMT6 (peptide sequence: EAALERPR, peptide start residue: 30) (UniProt Q96LA8)”: 0.208; for “NACC1 (peptide sequence: VKTEQQESDSVQCMPVAKR, peptide start residue: 166) (UniProt Q96RE7)”: 0.406; for “C9orf85 (peptide sequence: LHDGVCQR, peptide start residue: 40) (UniProt Q96MD7)”: 0.132.

The values are drawn from the supplement of paper PMC12819154, “High-throughput peptide-centric local stability assay extends protein–ligand identification to membrane proteins, tissues and bacteria” (Nature Structural & Molecular Biology, 2025).
